Consider one molecule from patent US20190275197A1.

Amino acid sequences for entries named in this document (tags omitted). A change or cut given only in a name is not applied to a line headed by its entry.
UniProt P02671: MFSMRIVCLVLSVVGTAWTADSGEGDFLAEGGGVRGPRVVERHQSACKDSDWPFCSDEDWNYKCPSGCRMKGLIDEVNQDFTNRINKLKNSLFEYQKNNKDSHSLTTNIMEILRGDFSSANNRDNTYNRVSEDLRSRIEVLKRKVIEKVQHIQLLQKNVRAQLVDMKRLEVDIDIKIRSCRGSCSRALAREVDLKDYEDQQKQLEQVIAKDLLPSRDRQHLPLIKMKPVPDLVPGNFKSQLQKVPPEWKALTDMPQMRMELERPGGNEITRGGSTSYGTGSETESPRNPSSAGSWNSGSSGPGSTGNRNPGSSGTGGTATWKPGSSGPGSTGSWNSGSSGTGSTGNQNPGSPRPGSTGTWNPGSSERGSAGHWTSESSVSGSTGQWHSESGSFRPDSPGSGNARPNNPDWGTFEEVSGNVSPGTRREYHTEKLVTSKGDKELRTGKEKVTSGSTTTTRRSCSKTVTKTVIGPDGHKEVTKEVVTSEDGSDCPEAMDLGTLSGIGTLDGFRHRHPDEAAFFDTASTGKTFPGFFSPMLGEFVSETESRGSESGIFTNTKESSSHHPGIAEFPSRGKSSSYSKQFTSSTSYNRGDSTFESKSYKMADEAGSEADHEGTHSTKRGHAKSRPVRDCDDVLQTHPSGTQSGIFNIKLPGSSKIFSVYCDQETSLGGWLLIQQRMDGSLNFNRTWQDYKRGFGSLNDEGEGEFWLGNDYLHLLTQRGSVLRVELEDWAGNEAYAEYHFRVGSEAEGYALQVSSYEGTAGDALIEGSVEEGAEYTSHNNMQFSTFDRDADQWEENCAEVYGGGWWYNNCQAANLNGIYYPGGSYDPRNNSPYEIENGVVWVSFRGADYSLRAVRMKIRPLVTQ

For this experiment, the target named is fibrin matrix (UniProt P02671). As to the kind of experiment: retention assay of fibrin matrices, unbound peptide measured by PTH ELISA.

Results are given in words; binding and its absence hold for the method and conditions named. Some entries that bind do so weakly or less than the wild type.

With NQEQVSPLYKNRSVSEIQLMHNLGKHLNSMERVEWLRKKLQDVHNF [TGplPTH1-34], the binding result is reported as “binds”.
